Measured values reported in PMC8289069, “Functional requirement of terminal inverted repeats for efficient ProtoRAG activity reveals the early evolution of V(D)J recombination”.

Columns and labels:
BbRAG1F [1] = target: T1, BbRAG1F (UniProt A0A185KID9); experiment: DNA-binding assay (type not stated); conditions: NBD* alone, nonspecific; recombinant protein; label: 5' biotin on strand 1
BbRAG1C + BbRAG2L [2] = experiment: EMSA; conditions: 1.5 mM Ca2+, HMGB1; EMSA: 25 mM MOPS pH 7.0, 50 mM KCl, 2 mM DTT, 1.5 mM CaCl2, 2.5% glycerol, 50 nM HMGB1, 100 nM ss nonspecific oligo, ~50 nM each RAG, 25 C 20 min; recombinant protein; protein details: N-terminal MBP,N-terminal MBP; label: 5' biotin on strand 1
BbRAG1L + BbRAG2L = experiment: EMSA; conditions: 1.5 mM Ca2+, HMGB1; EMSA: 25 mM MOPS pH 7.0, 50 mM KCl, 2 mM DTT, 1.5 mM CaCl2, 2.5% glycerol, 50 nM HMGB1, 100 nM ss nonspecific oligo, ~50 nM each RAG, 25 C 20 min; recombinant protein; protein details: N-terminal MBP,N-terminal MBP; label: 5' biotin on strand 1
BbRAG1D + BbRAG2L [3] = experiment: EMSA; conditions: 1.5 mM Ca2+, HMGB1, slightly enhanced vs BbRAG1C; EMSA: 25 mM MOPS pH 7.0, 50 mM KCl, 2 mM DTT, 1.5 mM CaCl2, 2.5% glycerol, 50 nM HMGB1, 100 nM ss nonspecific oligo, ~50 nM each RAG, 25 C 20 min; recombinant protein; protein details: N-terminal MBP,N-terminal MBP; label: 5' biotin on strand 1
BbRAG1C + BbRAG2L [4] = experiment: pull-down; conditions: 1.5 mM Ca2+; pull-down: 50 mM Tris pH 7.5, 150 mM NaCl, 0.5% NP40, 5% glycerol, 1.5 mM CaCl2, 4 C; recombinant protein; protein details: N-terminal MBP,N-terminal MBP; label: 5' biotin on strand 1
BbRAG1E + BbRAG2L = experiment: pull-down; conditions: 1.5 mM Ca2+; pull-down: 50 mM Tris pH 7.5, 150 mM NaCl, 0.5% NP40, 5% glycerol, 1.5 mM CaCl2, 4 C; protein in a lysate after overexpression; protein details: N-terminal MBP,N-terminal MBP; label: 5' biotin on strand 1
BbRAG1D + BbRAG2L [5] = experiment: pull-down; conditions: 1.5 mM Ca2+; pull-down: 50 mM Tris pH 7.5, 150 mM NaCl, 0.5% NP40, 5% glycerol, 1.5 mM CaCl2, 4 C; recombinant protein; protein details: N-terminal MBP,N-terminal MBP; label: 5' biotin on strand 1
BbRAG1F [6] = target: T1, BbRAG1F; experiment: pull-down; conditions: co-expressed with BbRAG2L, text says NBD* alone interacts weakly (with 'BbRAG1L', apparently 5'TIR); pull-down: 50 mM Tris pH 7.5, 150 mM NaCl, 0.5% NP40, 5% glycerol, 1.5 mM CaCl2, 4 C; recombinant protein; label: 5' biotin on strand 1
mRAG1F (mouse) = target: T2, mRAG1F (mouse) (UniProt P15919); experiment: DNA-binding assay (type not stated); conditions: binds 12RSS specifically; recombinant protein; label: 5' biotin on strand 1
T2 sequence (looked up, limits assumed): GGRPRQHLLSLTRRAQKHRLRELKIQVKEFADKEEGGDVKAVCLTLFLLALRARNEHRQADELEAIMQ

Row | Sequence | binding result (BbRAG1F [1]) | binding result (BbRAG1C + BbRAG2L [2]) | binding result (BbRAG1L + BbRAG2L) | binding result (BbRAG1D + BbRAG2L [3]) | binding result (BbRAG1C + BbRAG2L [4]) | binding result (BbRAG1E + BbRAG2L) | binding result (BbRAG1D + BbRAG2L [5]) | binding result (BbRAG1F [6]) | binding result (mRAG1F (mouse))
1 | CGGACTCAGATCTCGAGCACTATGAAAACTTACGTGTGCATAAGGTCGGCGGCCATCTTGGTAATG (double strand) [5'TIR] | binds | binds | binds | binds | binds | no binding | binds | binds more weakly | –
2 | CGGACTCAGATCTCGAGCACTATGAAAACTTACGTGTGCATAAGGTCGGCGGTAATG (double strand) [5'TIR-deltaN] | binds | – | – | – | – | – | – | – | –
3 | CGGACTCAGATCTCGAGTCCAGAAGTCGCTCGACTGTGGTTTAATCGCTTGTAGCGTGGTCTGGTAATG (double strand) [NSP] | binds | – | – | – | – | – | binds | – | –
4 | GATCTGGCCTGTCTTACACAGTGATACAGACCTTACTCTGGCTGCTGCAG (double strand) [12RSS-deltaN] | – | – | – | – | – | – | – | – | binds more weakly
5 | GATCTGGCCTGTCTTAGGTCAATGCTGTAGAACTCGTCCTGTACCTGCAG (double strand) [RNSP] | – | – | – | – | – | – | – | – | binds more weakly
6 | GGTGGATCCCGGGCCCCACTATGATACTTACGCTATACCCAGCAGTGTCTGGTCGCCATCTTGTAAGAT (double strand) [3'TIR] | – | binds | binds | binds | binds | no binding | binds | – | –

For at least one entry, the source does not settle the construct or the ends of the probe. For some of these results: A weaker result is weaker than the reference pair of the same experiment. For some of these results: At least one verdict was read from the data and is not stated in words by the source. For some of these results: Protein sequences can lack the tags named with them. For some of these results: At least one result comes from cells or an extract, where the contact may be indirect. For some of these results: No signal at the amounts used counts as a negative.
